Experimental data taken from article PMC3372421.
No constants are given. Whether binding was seen depends on the method and setting. Binding seen in cells or lysates may run through a third protein. Some entries that bind do so weakly or less than the wild type.

Protein sequences, listed by entry. Tags and fused reporters are not part of them.
UniProt Q7Z434: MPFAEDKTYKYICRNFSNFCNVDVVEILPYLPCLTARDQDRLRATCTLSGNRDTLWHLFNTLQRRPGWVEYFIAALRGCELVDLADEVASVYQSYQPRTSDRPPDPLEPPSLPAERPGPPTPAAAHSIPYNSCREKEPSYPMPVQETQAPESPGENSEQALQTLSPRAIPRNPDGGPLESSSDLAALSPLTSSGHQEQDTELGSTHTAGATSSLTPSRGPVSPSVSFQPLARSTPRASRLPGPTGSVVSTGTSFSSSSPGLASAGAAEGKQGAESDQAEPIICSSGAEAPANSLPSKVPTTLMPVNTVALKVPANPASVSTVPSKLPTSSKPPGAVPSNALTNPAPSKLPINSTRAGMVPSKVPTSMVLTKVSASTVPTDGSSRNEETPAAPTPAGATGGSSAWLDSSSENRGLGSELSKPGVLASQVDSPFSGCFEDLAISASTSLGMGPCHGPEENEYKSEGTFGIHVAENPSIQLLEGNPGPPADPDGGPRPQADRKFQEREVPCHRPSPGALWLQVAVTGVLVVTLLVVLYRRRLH
UniProt Q14258: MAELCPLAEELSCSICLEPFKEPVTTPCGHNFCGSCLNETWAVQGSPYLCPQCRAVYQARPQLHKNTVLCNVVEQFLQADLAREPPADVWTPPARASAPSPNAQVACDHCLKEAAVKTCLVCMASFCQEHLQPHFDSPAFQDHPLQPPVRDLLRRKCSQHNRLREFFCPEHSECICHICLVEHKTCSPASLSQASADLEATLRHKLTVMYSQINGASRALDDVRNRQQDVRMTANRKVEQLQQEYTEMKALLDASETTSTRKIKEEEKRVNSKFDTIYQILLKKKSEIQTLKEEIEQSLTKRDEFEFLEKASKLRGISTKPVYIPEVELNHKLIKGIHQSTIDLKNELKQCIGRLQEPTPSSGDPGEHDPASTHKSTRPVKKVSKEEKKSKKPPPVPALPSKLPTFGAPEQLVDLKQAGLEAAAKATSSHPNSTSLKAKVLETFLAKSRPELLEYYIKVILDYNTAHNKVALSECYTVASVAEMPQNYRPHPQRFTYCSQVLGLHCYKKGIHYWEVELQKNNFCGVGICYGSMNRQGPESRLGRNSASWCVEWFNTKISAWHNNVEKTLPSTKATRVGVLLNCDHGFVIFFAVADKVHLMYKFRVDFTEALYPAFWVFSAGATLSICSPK

Biological target: mitochondrial antiviral signaling adaptor MAVS (human (endogenous in HEK293T)) (UniProt Q7Z434)
Test: co-IP; endogenous MAVS immunoprecipitated with anti-MAVS (2.5 μg/ml) and protein G-magnetic beads from HEK293T cell extracts in lysis buffer-B (50 mM Tris-HCl pH 7.5, 140 mM NaCl, 5 mM EDTA, 5% glycerol, 1% Triton X-100, 1% Nonidet P-40); cells infected or not with SeV H4 in the presence of MG132 for 6 hr; immunoblot for TRIM25

binding: binds
Substance: E3 ubiquitin ligase TRIM25 (from UniProt Q14258 1-630)
